Experimental data reported in patent US9097721B2, “Compositions comprising engineered phosphothreonine affinity reagents, methods of making, and methods of use” (The Board of Trustees of the University of Illinois, priority 2012, dated 2015).

B1: WT: N-terminal FHA1 domain of S. cerevisiae Rad53 protein kinase, residues 1-170 (SEQ ID NO:7) (protein, listed as Saccharomyces cerevisiae)
chain: MENITQPTQQSTQATQRFLIEKFSQEQIGENIVCRVICTTGQIPIRDLSADISQVLKEKRSIKKVWTFGRNPACDYHLGNISRLSNKHFQILLGEDGNLLLNDISTNGTWLNGQKVEKNSNQLLSQGDEITVGVGVESDILSLVIFINDKFKQCLEQNKVDRIRSNLKNT
B2: 3C-3S: FHA1 domain variant with three cysteines mutated to serine (C34S, C38S, C154S) (protein)
chain: B1 chain with C34S, C38S, C154S
modifications: left off: a dimerising Fc or GST; large carriers; small tags and cut ends
B3: 4C-4S: FHA1 variant with all four cysteines mutated to serines (protein)
chain: B1 chain with C34S, C38S, C74S, C154S
modifications: left off: a dimerising Fc or GST; large carriers; small tags and cut ends
notes: FHA1 variant with all four cysteines mutated to serines

Tested on: anti-FHA scFv
Test: Phage ELISA with antibody fragment recognising only folded FHA1 domain
Conditions: phage-displayed, normalized to Flag epitope

Molecule	recognition by anti-FHA scFv (conformational epitope)
B1	Neither the phage-displayed WT FHA1 domain nor the 3C-3S and 4C-4S variants were recognized
B2	Neither the phage-displayed WT FHA1 domain nor the 3C-3S and 4C-4S variants were recognized
B3	Neither the phage-displayed WT FHA1 domain nor the 3C-3S and 4C-4S variants were recognized

Residue numbers refer to the chain shown, from its start. Names and notes keep the numbering of the source. Some compounds share one wording; it may come from a single statement.
